Laboratory results as given in publication PMC5789083, “Mechanisms driving the antibacterial and antibiofilm properties of Hp1404 and its analogue peptides against multidrug-resistant Pseudomonas aeruginosa” (Scientific Reports, 2018).

System: P. aeruginosa 1034
Parameters: species or system BALB/c mice
Settings: mouse, in vivo
Method: BALB/c mice (6 weeks old) were used in this study. The mice were shaved and intradermally injected with 20 µl of P. aeruginosa (1 × 10^8 CFU/ml) in PBS. […] […]; Chosun University, Gwangju, South Korea).

## O=C(O)c1cn(C2CC2)c2cc(N3CCNCC3)c(F)cc2c1=O [Ciprofloxacin, ciprofloxacin, reference compound]
  bacterial colonies in infected skin: slightly reduced
